The values that follow come from publication PMC7819943, “Rice protein-binding microarrays: a tool to detect cis-acting elements near promoter regions in rice”.

Sequences of proteins named here, by UniProt entry; tags and fusion partners are left off.
UniProt Q0JBA9, entry or part of it: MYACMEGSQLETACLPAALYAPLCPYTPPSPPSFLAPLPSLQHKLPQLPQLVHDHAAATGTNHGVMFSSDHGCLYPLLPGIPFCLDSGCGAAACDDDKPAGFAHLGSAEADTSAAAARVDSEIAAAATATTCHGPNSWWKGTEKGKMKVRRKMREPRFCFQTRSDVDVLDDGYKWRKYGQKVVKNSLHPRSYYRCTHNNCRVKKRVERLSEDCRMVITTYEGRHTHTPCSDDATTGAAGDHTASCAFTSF

This is one part of the list.

The target of this experiment is OsWRKY34 (Oryza sativa, UniProt Q0JBA9 1-250). The experiment is described as follows: protein-binding microarray (RPBM); PBS, 2% BSA, 51.3 ng/ul salmon testes DNA, 50 uM zinc acetate, 200 nM TF, 25 C, 1 h; high values mean tight binding. The conditions noted are these: protein: recombinant; tags: N-terminal polyhistidine and DsRed monomer fusion (pET32a); label: CyDye5-dUTP incorporated in the synthesized complementary strand; 3' TTTTT single-stranded linker to array surface; dsDNA, one strand shown. The essentials: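 In PBS with 2% BSA, salmon testes DNA and 50 µM zinc acetate, 200 nM protein was incubated on a custom Agilent array at 25 °C for 1 h and then washed off. The array had been made double-stranded by primer extension with Cy5-dUTP and blocked with 2% BSA. The proteins were transcription factors fused N-terminally to polyhistidine and DsRed, expressed in E. coli BL21-CodonPlus and purified on Ni–NTA. The binding signal is per-feature fluorescence intensity (arbitrary units) from an Axon 4000B scanner.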
Take “CTTTGGTCCTCGCCCGCATGCCGCTGTCGCCACCGCTGTGCGGAGTCACCTAGTGCAG”: the binding signal was 11200 fluorescence intensity (a.u.). The figure for “TCTGTAATCACATCAGTCCTTTCTGTCGCGTAGTACGCCTCGGAGTCACCTAGTGCAG” is 8050 fluorescence intensity (a.u.); for “TCATATTATCTATCCATTACTTCCGTTGTGTCTCATCCCTCGGAGTCACCTAGTGCAG” it is 9780 fluorescence intensity (a.u.).

For the sequence “TTCACATCCTGAGTTCCTGACCAATTTCATTCACTCACACCGGAGTCACCTAGTGCAG”, the binding signal was 9630 fluorescence intensity (a.u.).

Take “TTATGTTTTGCTGTTGTGAATGGAATATTGCTTGCATGATCGGAGTCACCTAGTGCAG”: the binding signal was 9520 fluorescence intensity (a.u.). The same measure for “TTTCGCCTCGTCGATTCGTCGAACACCTCGCGAGCTTCCTCGGAGTCACCTAGTGCAG”: 8280 fluorescence intensity (a.u.); for “CTAGTATGTCTGCGTGTGCCTGCCGTGCATTCGAATTTTTCGGAGTCACCTAGTGCAG”: 9750 fluorescence intensity (a.u.); for “CTATACTATTAAACTTGCTCTCAACTCTACCCGTGCAGTCCGGAGTCACCTAGTGCAG”: 8070 fluorescence intensity (a.u.). The same measure for “CGGAGGCGGCGCCTGAGGAGGGGCTTGGGGCGGAGGCCGACGGAGTCACCTAGTGCAG”: 10400 fluorescence intensity (a.u.). The figure for “GCTGTTTAACCCGTCGGCTCGCCGGCGCTCCCATCCATCCCGGAGTCACCTAGTGCAG” is 8240 fluorescence intensity (a.u.); for “GGCGCTTTATTCAATTGGTCCGCTCTCGGTCTCCTGCACGCGGAGTCACCTAGTGCAG” it is 8270 fluorescence intensity (a.u.); for “TAACAACATTAGCCGCACACATATTACACCGTTGAATCAGCGGAGTCACCTAGTGCAG” it is 8360 fluorescence intensity (a.u.). Turning to “TTTTTGGTTCTCGTTCATTTTTGTGCTGTGGTAAGAAGTCCGGAGTCACCTAGTGCAG”, the binding signal is 8190 fluorescence intensity (a.u.). The figure for “GACTCGTGCGCCGCCTACTTTCGCCAATCGCCATGGTGCACGGAGTCACCTAGTGCAG” is 8270 fluorescence intensity (a.u.); for “CTCCTCCTCCGATCCTGTGTGTGCATGCGTCTCCGTGCACCGGAGTCACCTAGTGCAG” it is 9840 fluorescence intensity (a.u.). The same measure for “CAAACTTCAGTCCTTTTCCATCACATCAATCTATCATTCACGGAGTCACCTAGTGCAG”: 8320 fluorescence intensity (a.u.); for “TCGGACTTCTTTTTTTGGTTTTTTTCTCATCGTTTCTTTTCGGAGTCACCTAGTGCAG”: 9370 fluorescence intensity (a.u.); for “CTGTATACATCGCCCGTGTCTTGTGTGTTTCCTGTCTCGCCGGAGTCACCTAGTGCAG”: 9750 fluorescence intensity (a.u.). The figure for “TCCACCTACCGCTTGTTCCCCTAATTGATCTCTCCCCATGCGGAGTCACCTAGTGCAG” is 8210 fluorescence intensity (a.u.); for “TCTCGCGCCTACTCTCTCTCTCTCGCGCGCGCGCCGTCCTCGGAGTCACCTAGTGCAG” it is 9020 fluorescence intensity (a.u.). As to “CGGATTTGTTCTCACGTGGATATGGTGCAGCGCTGCACACCGGAGTCACCTAGTGCAG”, the binding signal was 8970 fluorescence intensity (a.u.). As for “CGACACGGTCTCCAAAACACAATTTTGACTTCTTATTTCTCGGAGTCACCTAGTGCAG”, the binding signal is 8790 fluorescence intensity (a.u.). In the case of “TCGTGTCCACCATTTTGATCCAGGCTATACATATTGTTTTCGGAGTCACCTAGTGCAG”, the binding signal is 12100 fluorescence intensity (a.u.).
